The nature of this data set: HABA-avidin biotin quantification of biotinylated antibody conjugates.

On to Rituximab-NHS, for which the “# of biotin” value (mAb-NHS, biotin per antibody) is reported as 6.58. “Bevacizumab: clinically approved monoclonal antibody”: the “# of biotin” value (mAb, unconjugated) is given as 0. For the compound Rituximab-DS, the “# of biotin” value (mAb-DS, biotin per antibody) turned out to be 2.1.

In the case of “Rituximab: clinically approved monoclonal antibody”, the “# of biotin” value (mAb, unconjugated) worked out at 0. Regarding Bevacizumab-DS, the “# of biotin” value (mAb-DS, biotin per antibody) worked out at 2.3.

`O=C1N[C@H]2[C@H](CS[C@H]2CCCCC(=O)ON2C(=O)CC(S(=O)(=O)[O-])C2=O)N1.[Na+]` (stereo partly shown) [NH2-reactive biotin, sulfo-NHS-biotin]: the “average biotin per antibody ratio” value (maleimide (MDS) conjugates TMDS, BMDS, RMDS, NMDS) is 5-10.

As to Bevacizumab-NHS, the “# of biotin” value (mAb-NHS, biotin per antibody) worked out at 4.47.

Values taken from patent US10588982B2, “Site-specific covalent chemical ligation to monoclonal and polyclonal immunoglobulin” (The Regents of the University of California, priority 2015, dated 2020).
